Test results as given in doi:10.1101/556266.
Numbering of substitutions follows the chain as printed. These are yes or no findings as the source states them, for the method shown. In cells and extracts the contact can be indirect. For some assays here: Binding can be weak; no strength is given. Where a sequence is shown, tags or fusion partners need not be part of it.

Assays:
[1] = molecular target: T1, GFP-Snapin-S50A (UniProt O95295); experiment: co-IP
T1 sequence: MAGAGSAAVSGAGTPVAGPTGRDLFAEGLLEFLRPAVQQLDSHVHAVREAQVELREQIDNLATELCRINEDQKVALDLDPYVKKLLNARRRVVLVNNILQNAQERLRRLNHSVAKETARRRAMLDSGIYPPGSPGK

[2] = molecular target: T2, GFP-Snapin-S50D (UniProt O95295); experiment: co-IP
T2 sequence: T1 sequence with A50D

Dynein intermediate chain (endogenous, HEK293T) (human (endogenous in HEK293T))
binding [1]: binds
binding [2]: no binding
